Measurements reported in paper PMC9655037, “Alternation of Organ-Specific Exposure in LPS-Induced Pneumonia Mice after the Inhalation of Tetrandrine Is Governed by Metabolizing Enzyme Suppression and Lysosomal Trapping” (International Journal of Molecular Sciences, 2022).

By UniProt entry, the sequences of proteins in these tests, tags left out.
UniProt P08183, whole entry: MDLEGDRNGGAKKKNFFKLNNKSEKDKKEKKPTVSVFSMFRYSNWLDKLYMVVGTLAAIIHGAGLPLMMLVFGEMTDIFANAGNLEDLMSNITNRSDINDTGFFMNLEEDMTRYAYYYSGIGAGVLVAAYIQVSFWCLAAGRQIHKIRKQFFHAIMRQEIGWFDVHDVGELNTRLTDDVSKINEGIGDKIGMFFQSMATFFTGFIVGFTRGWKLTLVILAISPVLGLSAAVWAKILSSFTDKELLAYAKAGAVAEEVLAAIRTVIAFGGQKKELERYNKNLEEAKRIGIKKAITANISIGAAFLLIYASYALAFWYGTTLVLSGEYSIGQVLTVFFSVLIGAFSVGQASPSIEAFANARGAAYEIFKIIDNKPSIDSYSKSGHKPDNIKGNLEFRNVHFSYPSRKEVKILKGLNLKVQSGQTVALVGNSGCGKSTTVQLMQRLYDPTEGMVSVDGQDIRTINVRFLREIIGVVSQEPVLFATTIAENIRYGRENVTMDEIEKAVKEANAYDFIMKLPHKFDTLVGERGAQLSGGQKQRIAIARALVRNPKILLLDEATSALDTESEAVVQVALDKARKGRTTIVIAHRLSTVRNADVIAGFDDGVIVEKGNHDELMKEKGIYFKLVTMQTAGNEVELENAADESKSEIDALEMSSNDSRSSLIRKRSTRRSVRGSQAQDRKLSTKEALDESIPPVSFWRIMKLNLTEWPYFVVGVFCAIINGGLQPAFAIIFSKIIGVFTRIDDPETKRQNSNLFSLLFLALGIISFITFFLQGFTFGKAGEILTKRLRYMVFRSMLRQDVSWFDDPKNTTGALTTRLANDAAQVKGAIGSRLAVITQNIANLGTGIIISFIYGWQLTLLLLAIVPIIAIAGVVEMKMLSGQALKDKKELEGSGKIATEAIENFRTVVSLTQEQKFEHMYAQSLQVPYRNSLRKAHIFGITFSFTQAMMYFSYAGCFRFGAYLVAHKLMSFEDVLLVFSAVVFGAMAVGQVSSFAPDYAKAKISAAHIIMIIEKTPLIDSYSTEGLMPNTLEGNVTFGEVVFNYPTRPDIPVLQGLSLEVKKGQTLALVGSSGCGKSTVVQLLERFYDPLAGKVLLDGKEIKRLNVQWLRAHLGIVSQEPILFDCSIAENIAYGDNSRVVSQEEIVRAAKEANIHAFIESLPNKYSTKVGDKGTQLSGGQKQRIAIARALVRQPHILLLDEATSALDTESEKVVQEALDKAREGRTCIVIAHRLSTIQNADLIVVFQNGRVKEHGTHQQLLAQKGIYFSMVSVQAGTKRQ

What was measured:
[1] = Bidirectional transport in MOCK LLC-PK1 cells; conditions: pig
Description: (§1) MDR1 expressing LLC-PK1 cells or MOCK LLC-PK1 cells were utilized to identify whether P-gp is involved in the efflux transport across the membrane barrier. Cells were cultured as described above. Cells were seeded at a density of 2 × 10^4 in Millicell® 24-well cell culture plates with a 6.5 mm insert (0.4 µm polycarbonate membrane) from Corning (Kennebunk, ME, USA) 7 days before the experiments. On the day of the experiment, transepithelial electrical resistance (TEER) was measured to assess monolayer integrity. After washing the cells twice with HBSS, transport experiments in either the apical-to-basolateral direction (A-B) or the basolateral-to-apical direction (B-A) were conducted. […] After incubating the plates at 37 °C for 2 h, samples from the receiving and donor wells (50 μL) were taken simultaneously. All the samples were stored at −40 °C for LC-MS/MS analysis.
(§2) In the bidirectional transport study in LLC-PK1 cells, the following equations were used to calculate Papp values and the MDR1 efflux ratio.

MDR1 (P-gp) = MDR1 (P-gp) (Homo sapiens, UniProt P08183); experiment: Bidirectional transport in MDR1-transfected LLC-PK1 cells
Description: as §1, §2

Papp B→A at 2 h [1]: 0.12 ± 0.01 ×10⁻⁶ cm/s
Papp A→B at 2 h (MDR1 (P-gp)): 1.23 ± 0.08 ×10⁻⁶ cm/s
efflux ratio at 2 h (MDR1 (P-gp); human, LLC-PK1): 0.84
SMILES: CC(C)NCC(O)COc1ccc(CC(N)=O)cc1 (stereo not drawn) [Atenolol, atenolol]
